The other results are listed elsewhere or left out.

Protein sequences, listed by entry. Tags and fused reporters are not part of them. Lines headed by an entry give the natural chain unless they say otherwise; changes in a name come on top.
UniProt P43378: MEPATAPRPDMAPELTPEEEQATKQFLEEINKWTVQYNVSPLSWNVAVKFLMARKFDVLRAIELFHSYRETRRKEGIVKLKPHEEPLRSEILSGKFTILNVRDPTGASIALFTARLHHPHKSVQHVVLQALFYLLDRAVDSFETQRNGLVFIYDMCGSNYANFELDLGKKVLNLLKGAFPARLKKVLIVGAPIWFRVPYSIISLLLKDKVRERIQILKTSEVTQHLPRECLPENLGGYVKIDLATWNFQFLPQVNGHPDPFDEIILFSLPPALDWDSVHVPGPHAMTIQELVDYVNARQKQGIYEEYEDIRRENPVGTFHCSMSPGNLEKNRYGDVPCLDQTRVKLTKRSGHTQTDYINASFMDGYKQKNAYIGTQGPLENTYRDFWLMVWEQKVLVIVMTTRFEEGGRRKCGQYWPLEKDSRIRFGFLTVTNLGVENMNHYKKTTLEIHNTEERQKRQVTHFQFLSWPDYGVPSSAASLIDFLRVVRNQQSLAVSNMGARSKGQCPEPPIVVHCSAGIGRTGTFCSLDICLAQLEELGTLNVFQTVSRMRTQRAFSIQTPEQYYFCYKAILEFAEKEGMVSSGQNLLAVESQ
UniProt Q9H939: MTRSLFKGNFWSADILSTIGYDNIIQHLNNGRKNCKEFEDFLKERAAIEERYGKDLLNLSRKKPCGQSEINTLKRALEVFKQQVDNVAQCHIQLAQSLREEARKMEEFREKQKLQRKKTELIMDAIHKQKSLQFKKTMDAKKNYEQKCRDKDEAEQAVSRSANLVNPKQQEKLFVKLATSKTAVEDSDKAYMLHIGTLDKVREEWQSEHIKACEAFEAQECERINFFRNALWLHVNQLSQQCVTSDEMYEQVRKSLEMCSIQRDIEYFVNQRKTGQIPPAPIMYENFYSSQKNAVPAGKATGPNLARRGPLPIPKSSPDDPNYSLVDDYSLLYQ
UniProt Q9NRG1: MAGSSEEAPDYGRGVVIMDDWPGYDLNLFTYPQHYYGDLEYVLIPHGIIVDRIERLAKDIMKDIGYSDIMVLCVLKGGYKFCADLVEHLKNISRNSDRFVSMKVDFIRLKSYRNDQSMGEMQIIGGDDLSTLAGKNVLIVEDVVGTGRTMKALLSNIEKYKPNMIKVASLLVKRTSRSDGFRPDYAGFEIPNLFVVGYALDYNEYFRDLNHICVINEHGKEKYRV
UniProt O14818: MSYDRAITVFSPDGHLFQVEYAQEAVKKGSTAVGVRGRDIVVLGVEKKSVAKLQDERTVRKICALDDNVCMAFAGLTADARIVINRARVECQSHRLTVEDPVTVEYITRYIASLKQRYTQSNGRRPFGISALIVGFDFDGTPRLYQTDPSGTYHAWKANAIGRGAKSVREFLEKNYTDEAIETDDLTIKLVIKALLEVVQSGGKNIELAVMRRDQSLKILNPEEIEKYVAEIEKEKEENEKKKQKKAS
UniProt P35998: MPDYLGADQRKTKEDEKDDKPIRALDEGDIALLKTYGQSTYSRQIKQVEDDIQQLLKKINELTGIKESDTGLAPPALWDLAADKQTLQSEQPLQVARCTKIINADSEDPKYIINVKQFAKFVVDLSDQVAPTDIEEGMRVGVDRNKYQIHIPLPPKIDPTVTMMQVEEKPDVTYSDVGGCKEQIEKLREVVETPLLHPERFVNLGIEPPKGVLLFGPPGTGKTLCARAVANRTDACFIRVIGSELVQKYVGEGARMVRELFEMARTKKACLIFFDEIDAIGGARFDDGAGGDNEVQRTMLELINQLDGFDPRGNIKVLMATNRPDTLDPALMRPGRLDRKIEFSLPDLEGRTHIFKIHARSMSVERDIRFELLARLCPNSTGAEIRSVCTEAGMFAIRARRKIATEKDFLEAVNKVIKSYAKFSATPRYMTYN
UniProt P07602: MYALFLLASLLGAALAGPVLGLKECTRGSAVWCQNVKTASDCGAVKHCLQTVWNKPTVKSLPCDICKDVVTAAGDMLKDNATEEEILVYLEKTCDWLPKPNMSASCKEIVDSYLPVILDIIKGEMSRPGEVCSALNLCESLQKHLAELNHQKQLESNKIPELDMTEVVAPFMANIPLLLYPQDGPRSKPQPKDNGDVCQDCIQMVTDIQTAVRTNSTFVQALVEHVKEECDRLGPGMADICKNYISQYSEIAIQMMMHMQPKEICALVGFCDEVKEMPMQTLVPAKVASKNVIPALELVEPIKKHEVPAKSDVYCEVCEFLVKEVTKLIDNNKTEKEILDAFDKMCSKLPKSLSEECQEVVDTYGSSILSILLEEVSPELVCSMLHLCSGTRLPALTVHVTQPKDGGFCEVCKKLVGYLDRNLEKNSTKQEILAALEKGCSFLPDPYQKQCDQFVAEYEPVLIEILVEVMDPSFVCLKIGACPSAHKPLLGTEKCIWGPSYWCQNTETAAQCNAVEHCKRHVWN
UniProt P61289: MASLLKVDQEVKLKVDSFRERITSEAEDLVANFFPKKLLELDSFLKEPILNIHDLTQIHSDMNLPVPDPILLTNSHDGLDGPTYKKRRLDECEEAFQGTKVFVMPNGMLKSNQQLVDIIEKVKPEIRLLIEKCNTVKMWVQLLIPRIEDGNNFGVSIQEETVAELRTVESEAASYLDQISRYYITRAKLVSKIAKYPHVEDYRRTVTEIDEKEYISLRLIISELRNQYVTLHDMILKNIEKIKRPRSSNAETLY
UniProt Q5JSZ5: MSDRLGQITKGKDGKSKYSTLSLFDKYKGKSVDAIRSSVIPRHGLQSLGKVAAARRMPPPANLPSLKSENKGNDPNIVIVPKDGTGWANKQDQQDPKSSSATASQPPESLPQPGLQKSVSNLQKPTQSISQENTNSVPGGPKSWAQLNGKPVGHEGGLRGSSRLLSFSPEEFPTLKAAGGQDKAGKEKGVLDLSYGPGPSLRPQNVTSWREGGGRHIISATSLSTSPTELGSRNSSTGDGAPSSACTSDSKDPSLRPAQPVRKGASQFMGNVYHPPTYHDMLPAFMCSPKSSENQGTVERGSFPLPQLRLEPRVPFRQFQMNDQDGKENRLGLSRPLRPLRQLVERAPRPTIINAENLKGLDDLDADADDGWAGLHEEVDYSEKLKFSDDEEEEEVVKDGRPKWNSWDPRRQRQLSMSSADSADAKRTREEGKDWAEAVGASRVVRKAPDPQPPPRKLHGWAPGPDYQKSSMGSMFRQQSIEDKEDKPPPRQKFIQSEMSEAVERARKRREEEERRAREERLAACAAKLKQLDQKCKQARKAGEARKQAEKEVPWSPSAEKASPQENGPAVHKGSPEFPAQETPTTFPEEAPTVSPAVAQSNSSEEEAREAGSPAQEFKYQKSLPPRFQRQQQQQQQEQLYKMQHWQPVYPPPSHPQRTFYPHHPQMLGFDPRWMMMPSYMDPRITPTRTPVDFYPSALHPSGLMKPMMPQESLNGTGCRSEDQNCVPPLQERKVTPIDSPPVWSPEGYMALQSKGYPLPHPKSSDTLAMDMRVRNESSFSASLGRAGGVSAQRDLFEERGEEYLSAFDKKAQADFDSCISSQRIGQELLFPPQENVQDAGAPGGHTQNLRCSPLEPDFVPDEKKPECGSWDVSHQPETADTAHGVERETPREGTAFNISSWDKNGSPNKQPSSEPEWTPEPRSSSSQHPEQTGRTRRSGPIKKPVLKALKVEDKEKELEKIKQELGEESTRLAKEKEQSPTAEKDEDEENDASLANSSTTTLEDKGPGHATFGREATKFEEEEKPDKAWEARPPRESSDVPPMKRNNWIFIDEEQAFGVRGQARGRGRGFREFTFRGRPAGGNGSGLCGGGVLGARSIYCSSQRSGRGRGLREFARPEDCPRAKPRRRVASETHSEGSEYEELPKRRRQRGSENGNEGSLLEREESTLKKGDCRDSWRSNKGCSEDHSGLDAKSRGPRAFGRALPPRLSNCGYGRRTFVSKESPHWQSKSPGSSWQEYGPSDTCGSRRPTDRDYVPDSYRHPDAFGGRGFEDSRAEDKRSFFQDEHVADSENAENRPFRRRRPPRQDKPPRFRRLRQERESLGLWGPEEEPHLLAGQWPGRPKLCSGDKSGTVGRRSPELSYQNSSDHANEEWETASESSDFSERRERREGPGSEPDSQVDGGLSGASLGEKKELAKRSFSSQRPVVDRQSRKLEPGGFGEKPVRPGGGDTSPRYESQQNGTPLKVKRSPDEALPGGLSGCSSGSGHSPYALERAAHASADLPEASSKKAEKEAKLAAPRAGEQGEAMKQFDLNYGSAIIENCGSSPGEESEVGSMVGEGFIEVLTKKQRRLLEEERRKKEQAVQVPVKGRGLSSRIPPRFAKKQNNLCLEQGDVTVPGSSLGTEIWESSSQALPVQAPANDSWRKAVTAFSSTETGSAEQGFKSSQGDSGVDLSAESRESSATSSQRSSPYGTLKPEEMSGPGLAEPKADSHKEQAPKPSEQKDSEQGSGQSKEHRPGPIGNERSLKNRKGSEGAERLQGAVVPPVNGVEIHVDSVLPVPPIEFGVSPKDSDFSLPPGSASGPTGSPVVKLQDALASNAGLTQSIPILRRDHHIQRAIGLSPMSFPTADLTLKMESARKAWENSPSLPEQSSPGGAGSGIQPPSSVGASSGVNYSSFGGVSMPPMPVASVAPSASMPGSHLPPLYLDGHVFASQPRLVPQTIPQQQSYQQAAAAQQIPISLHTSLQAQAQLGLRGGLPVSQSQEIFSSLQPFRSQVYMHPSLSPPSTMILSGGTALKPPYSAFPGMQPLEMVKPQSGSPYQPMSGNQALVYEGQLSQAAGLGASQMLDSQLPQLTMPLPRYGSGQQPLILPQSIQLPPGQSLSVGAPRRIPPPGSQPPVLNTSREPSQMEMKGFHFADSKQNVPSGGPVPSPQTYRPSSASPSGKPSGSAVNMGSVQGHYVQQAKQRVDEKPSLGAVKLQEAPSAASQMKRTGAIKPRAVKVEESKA
UniProt Q96BW5: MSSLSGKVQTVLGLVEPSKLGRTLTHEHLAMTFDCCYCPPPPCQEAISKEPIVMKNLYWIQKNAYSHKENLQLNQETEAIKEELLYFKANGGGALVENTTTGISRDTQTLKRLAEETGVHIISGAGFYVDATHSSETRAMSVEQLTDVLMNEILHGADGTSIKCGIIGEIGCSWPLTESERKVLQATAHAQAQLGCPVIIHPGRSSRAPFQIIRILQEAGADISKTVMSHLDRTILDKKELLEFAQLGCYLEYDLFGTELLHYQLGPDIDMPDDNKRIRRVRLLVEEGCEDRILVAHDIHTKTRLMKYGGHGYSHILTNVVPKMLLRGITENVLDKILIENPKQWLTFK
UniProt Q16401: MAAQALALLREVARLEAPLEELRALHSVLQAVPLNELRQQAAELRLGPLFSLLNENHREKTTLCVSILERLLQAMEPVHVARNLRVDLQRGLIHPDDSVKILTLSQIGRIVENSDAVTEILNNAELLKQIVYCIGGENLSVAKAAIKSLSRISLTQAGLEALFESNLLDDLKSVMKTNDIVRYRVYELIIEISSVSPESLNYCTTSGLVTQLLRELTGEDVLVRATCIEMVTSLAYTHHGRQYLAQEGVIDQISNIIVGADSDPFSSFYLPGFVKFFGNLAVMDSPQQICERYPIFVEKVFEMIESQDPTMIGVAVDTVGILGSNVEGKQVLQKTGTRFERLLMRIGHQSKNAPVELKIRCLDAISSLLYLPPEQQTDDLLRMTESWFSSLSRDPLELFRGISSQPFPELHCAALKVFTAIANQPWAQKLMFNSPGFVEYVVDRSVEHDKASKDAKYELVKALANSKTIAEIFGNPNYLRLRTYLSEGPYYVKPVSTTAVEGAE
UniProt O75475: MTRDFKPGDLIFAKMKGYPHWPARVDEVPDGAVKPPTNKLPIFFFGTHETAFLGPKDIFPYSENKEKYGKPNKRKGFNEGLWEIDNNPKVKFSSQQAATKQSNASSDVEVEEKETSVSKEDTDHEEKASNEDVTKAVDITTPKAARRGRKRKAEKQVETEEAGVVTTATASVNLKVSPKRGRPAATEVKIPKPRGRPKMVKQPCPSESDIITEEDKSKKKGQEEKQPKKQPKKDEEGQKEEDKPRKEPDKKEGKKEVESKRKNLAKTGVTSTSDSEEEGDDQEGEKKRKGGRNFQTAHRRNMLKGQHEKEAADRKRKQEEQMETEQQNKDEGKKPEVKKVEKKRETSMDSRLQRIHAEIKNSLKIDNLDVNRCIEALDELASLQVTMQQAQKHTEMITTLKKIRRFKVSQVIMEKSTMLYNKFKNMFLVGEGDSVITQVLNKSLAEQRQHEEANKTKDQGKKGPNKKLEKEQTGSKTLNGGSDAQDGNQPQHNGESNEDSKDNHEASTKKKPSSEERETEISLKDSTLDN
UniProt P28074: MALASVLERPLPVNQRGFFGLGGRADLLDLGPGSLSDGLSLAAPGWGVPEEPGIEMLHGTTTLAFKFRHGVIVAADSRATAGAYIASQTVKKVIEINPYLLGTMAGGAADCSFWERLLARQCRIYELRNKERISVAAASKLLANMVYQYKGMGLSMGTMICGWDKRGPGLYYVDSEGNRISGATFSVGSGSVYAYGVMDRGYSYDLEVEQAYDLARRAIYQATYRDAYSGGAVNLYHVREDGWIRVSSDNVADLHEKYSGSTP
UniProt P20962: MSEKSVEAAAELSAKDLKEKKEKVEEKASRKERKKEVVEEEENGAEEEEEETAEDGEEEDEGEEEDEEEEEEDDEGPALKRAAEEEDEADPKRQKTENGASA

Compound in the first experiment: CC1=C(C2=C(C=C1)C(=O)C3=CC=CC=C3N2CCCN)C
Description: log2 fold change, soluble protein after heating vs DMSO (PISA); higher = thermal stabilisation; K562 lysate, 10 uM; active = over 0.2 and 3.5 SD of the protein, either way, in both replicates (recomputed). The procedure, abridged:
(§1)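 K562 pellets were dounce-homogenised in PBS pH 7.4 with 1 mM MgCl2, and the crude extract at 1 mg/mL protein was treated with 10 μM compound for 30 min. Aliquots were heated for 3 min across 48°C-58°C, pooled, and brought to 0.5% NP-40 at 4°C; soluble protein was the supernatant after 21,000xg for 90 min. Soluble protein was quantified by TMTpro 16plex LC-MS/MS with channel sums equalised, and reported as log2 fold change in thermal stability against DMSO controls, with values from duplicates.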
PSMA5 (UniProt P28066): the log2 fold change is inactive: -0.024.

Turning to PTBP1 (UniProt P26599), the log2 fold change was inactive: 0.016.

As for PTPN9 (UniProt P43378), the log2 fold change is inactive: 0.025.

As to PSTPIP2 (UniProt Q9H939), the log2 fold change was inactive: -0.037.

Regarding PRTFDC1 (UniProt Q9NRG1), the log2 fold change was inactive: 0.002.

Turning to PRUNE1 (UniProt Q86TP1), the log2 fold change was inactive: -0.015.

In the case of PRPSAP2 (UniProt O60256), the log2 fold change is inactive: -0.006.

Consider PSMA7 (UniProt O14818), for which the log2 fold change was inactive: -0.015.

PSMC2 (UniProt P35998): the log2 fold change was inactive: 0.014.

For PRPS1 (UniProt B1ALA9), the log2 fold change was inactive: 0.04.

Turning to PSAP isoform 3 (UniProt P07602), the log2 fold change was inactive: 0.094.

PSME3 isoform 2 (UniProt P61289): the log2 fold change is inactive: 0.009.

Turning to PSMB1 (UniProt P20618), the log2 fold change was inactive: -0.019.

For PRRC2B (UniProt Q5JSZ5), the log2 fold change was inactive: 0.034.

Take PTER (UniProt Q96BW5): the log2 fold change is inactive: -0.006.

As to PSMA1 isoform 2 (UniProt P25786), the log2 fold change was inactive: 0.014.

On to PRPF8 (UniProt Q6P2Q9), for which the log2 fold change was inactive: 0.006.

In the case of PTGES3 (UniProt Q15185), the log2 fold change is inactive: 0.008.

Consider PSME2 (UniProt Q9UL46), for which the log2 fold change was inactive: 0.

On to PUS10 (UniProt Q3MIT2), for which the log2 fold change is inactive: -0.027.

For PSMG1 (UniProt O95456), the log2 fold change is inactive: 0.021.

As for PTPN1 (UniProt P18031), the log2 fold change was inactive: -0.002.

With PSMA4 (UniProt P25789), the log2 fold change was inactive: -0.031.

As to PSMD9 (UniProt O00233), the log2 fold change is inactive: -0.038.

Consider PSMD5 (UniProt Q16401), for which the log2 fold change was inactive: -0.002.

Take PSIP1 (UniProt O75475): the log2 fold change is inactive: -0.034.

For the target PSMB5 (UniProt P28074), the log2 fold change was inactive: 0.018.

In the case of PSME1 (UniProt Q06323), the log2 fold change is inactive: -0.01.

As for PTPN6 isoform 4 (UniProt P29350), the log2 fold change is inactive: -0.081.

With PUM1 isoform 3 (UniProt Q14671), the log2 fold change was inactive: 0.044.

As for PTMS (UniProt P20962), the log2 fold change is inactive: -0.017.

Regarding PSMA6 (UniProt P60900), the log2 fold change is inactive: 0.031.

For the target PSMB2 (UniProt P49721), the log2 fold change is inactive: -0.008.

For the target PSMG2 (UniProt Q969U7), the log2 fold change was inactive: -0.002.

Compound in a further experiment: CC1=C(C=C(C=C1)NC(=O)C2=CC(=CC=C2)C(C)(C)C#N)NC3=CC4=C(C=C3)N=CN(C4=O)C
The experiment is described as above. The essentials:
as §1
As for PSMA5 (UniProt P28066), the log2 fold change is inactive: 0.035.

For the target PTBP1 (UniProt P26599), the log2 fold change is inactive: 0.017.

In the case of PTPN9 (UniProt P43378), the log2 fold change is inactive: -0.156.

Consider PSTPIP2 (UniProt Q9H939), for which the log2 fold change is inactive: 0.022.

Turning to PRTFDC1 (UniProt Q9NRG1), the log2 fold change is inactive: 0.009.

In the case of PRUNE1 (UniProt Q86TP1), the log2 fold change is inactive: 0.018.

With PRPSAP2 (UniProt O60256), the log2 fold change is inactive: 0.004.

For PSMA7 (UniProt O14818), the log2 fold change was inactive: -0.025.

For PSMC2 (UniProt P35998), the log2 fold change was inactive: -0.015.

In the case of PRPS1 (UniProt B1ALA9), the log2 fold change is inactive: 0.

As to PSAP isoform 3 (UniProt P07602), the log2 fold change was inactive: -0.077.

Consider PSME3 isoform 2 (UniProt P61289), for which the log2 fold change is inactive: -0.018.

As to PSMB1 (UniProt P20618), the log2 fold change was inactive: 0.008.

As to PRRC2B (UniProt Q5JSZ5), the log2 fold change is inactive: -0.189.

Regarding PTER (UniProt Q96BW5), the log2 fold change is inactive: -0.006.

On to PSMA1 isoform 2 (UniProt P25786), for which the log2 fold change was inactive: 0.003.

PRPF8 (UniProt Q6P2Q9): the log2 fold change was inactive: 0.

Take PTGES3 (UniProt Q15185): the log2 fold change is inactive: 0.021.

As to PSME2 (UniProt Q9UL46), the log2 fold change is inactive: 0.004.

PUS10 (UniProt Q3MIT2): the log2 fold change is inactive: 0.022.

As to PSMG1 (UniProt O95456), the log2 fold change is inactive: 0.005.

Regarding PTPN1 (UniProt P18031), the log2 fold change is inactive: 0.006.

PSMA4 (UniProt P25789): the log2 fold change was inactive: 0.01.

As for PSMD9 (UniProt O00233), the log2 fold change was inactive: 0.044.

With PSMD5 (UniProt Q16401), the log2 fold change is inactive: 0.002.

As to PSIP1 (UniProt O75475), the log2 fold change is inactive: 0.016.

For the target PSMB5 (UniProt P28074), the log2 fold change is inactive: 0.014.

Take PSME1 (UniProt Q06323): the log2 fold change is inactive: -0.006.

Regarding PTPN6 isoform 4 (UniProt P29350), the log2 fold change was inactive: -0.031.

For PUM1 isoform 3 (UniProt Q14671), the log2 fold change is active: -0.435.

For PTMS (UniProt P20962), the log2 fold change was inactive: 0.014.

As to PSMA6 (UniProt P60900), the log2 fold change is inactive: 0.023.

PSMB2 (UniProt P49721): the log2 fold change is inactive: 0.024.

PSMG2 (UniProt Q969U7): the log2 fold change was inactive: 0.012.

Compound in the next experiment: CC1=C(C=C(C=C1)NC(=O)C2=CC(=CC=C2)N(C)C)NC(=O)C3=CC=C(C=C3)O
Described as above. The procedure, abridged:
as §1
Regarding PSMA5 (UniProt P28066), the log2 fold change was inactive: -0.003.

Take PTBP1 (UniProt P26599): the log2 fold change is inactive: -0.026.

For PTPN9 (UniProt P43378), the log2 fold change is inactive: -0.001.

Regarding PSTPIP2 (UniProt Q9H939), the log2 fold change was inactive: -0.001.

Turning to PRTFDC1 (UniProt Q9NRG1), the log2 fold change was inactive: -0.008.

As for PRUNE1 (UniProt Q86TP1), the log2 fold change was inactive: 0.027.

As to PRPSAP2 (UniProt O60256), the log2 fold change is inactive: -0.033.

Turning to PSMA7 (UniProt O14818), the log2 fold change is inactive: 0.013.

On to PSMC2 (UniProt P35998), for which the log2 fold change is inactive: 0.007.

PRPS1 (UniProt B1ALA9): the log2 fold change was inactive: -0.022.

With PSAP isoform 3 (UniProt P07602), the log2 fold change was inactive: -0.01.

As to PSME3 isoform 2 (UniProt P61289), the log2 fold change was inactive: -0.011.

Take PSMB1 (UniProt P20618): the log2 fold change is inactive: 0.008.

Take PRRC2B (UniProt Q5JSZ5): the log2 fold change was inactive: -0.021.

In the case of PTER (UniProt Q96BW5), the log2 fold change was inactive: -0.011.

Consider PSMA1 isoform 2 (UniProt P25786), for which the log2 fold change is inactive: 0.004.

Turning to PRPF8 (UniProt Q6P2Q9), the log2 fold change is inactive: 0.008.

Regarding PTGES3 (UniProt Q15185), the log2 fold change is inactive: -0.004.

With PSME2 (UniProt Q9UL46), the log2 fold change was inactive: 0.025.

PUS10 (UniProt Q3MIT2): the log2 fold change is inactive: -0.009.

For PSMG1 (UniProt O95456), the log2 fold change was inactive: -0.024.

On to PTPN1 (UniProt P18031), for which the log2 fold change is inactive: 0.049.

In the case of PSMA4 (UniProt P25789), the log2 fold change was inactive: 0.004.

Turning to PSMD9 (UniProt O00233), the log2 fold change was inactive: -0.024.

With PSMD5 (UniProt Q16401), the log2 fold change was inactive: -0.012.

PSIP1 (UniProt O75475): the log2 fold change is inactive: 0.005.

Regarding PSMB5 (UniProt P28074), the log2 fold change was inactive: -0.033.

Regarding PSME1 (UniProt Q06323), the log2 fold change was inactive: -0.015.

Turning to PTPN6 isoform 4 (UniProt P29350), the log2 fold change was inactive: 0.011.

For the target PUM1 isoform 3 (UniProt Q14671), the log2 fold change is inactive: 0.049.

PTMS (UniProt P20962): the log2 fold change is inactive: -0.015.

As to PSMA6 (UniProt P60900), the log2 fold change is inactive: -0.023.

As to PSMB2 (UniProt P49721), the log2 fold change is inactive: -0.004.

In the case of PSMG2 (UniProt Q969U7), the log2 fold change is inactive: -0.024.
